Data on 23 molecules can be found in PubChem BioAssay AID330 (DTP/NCI, 2004).

The list does not hold the whole screen: it gathers tests that were run many times, whatever their T/C, doses with no T/C, and many T/C values between a quarter and a half above the control. Further doses and runs are listed elsewhere. T/C gives the treated animals as a percentage of the vehicle group. Some entries give survivors of the animals treated and no T/C: the source holds a T/C of zero for them, seemingly a mark for toxic or unscored doses. Some survivor counts are full or nearly so, which does not show that the dose was tolerated: the source hardly ever lists a survival T/C far under the control, and the zero likely stands for such cases as well. Survivors were counted at the toxicity check, usually on the fifth day, unless a day is given; later deaths do not show. Schedule codes are those of the source, read here as Q, the interval in days (D) or hours (H), X, the number of doses. Some entries were tested several times; the results are listed from low to high. For survival time, this PubChem deposit counts one and a half times the control or more as active, and values a quarter to a half above the control carry no call in these data; other NCI protocols may use other cut-offs. Some T/C values are followed by the survivors on the day toxicity was checked, most often the fifth; where none is given, no animal had died by that day.

This experiment has as its system P388 leukemia ip, CD2F1 mice, survival T/C. In words: NCI In Vivo Anticancer Drug Screen. Data for tumor model P388 Leukemia (intraperitoneal) in CD2F1 (CDF1) mice. As to conditions: T/C endpoint: median survival time, higher T/C = longer survival.
The mark [1] stands for this setting: dose: 200.0 mg/kg/injection, schedule: Q01DX009 (ip), vehicle: saline.
Setting [2] is: dose: 200.0 mg/kg/injection, schedule: Q01DX005 (ip), vehicle: Klucel (hydroxypropylcellulose) (HPC).
[3] abbreviates: dose: 200.0 mg/kg/injection, schedule: Q01DX009 (ip), vehicle: distilled water + Tween-80.
Setting [4] is: dose: 50.0 mg/kg/injection, schedule: Q01DX005 (ip), vehicle: Klucel (hydroxypropylcellulose) (HPC).
The mark [5] stands for this setting: dose: 50.0 mg/kg/injection, schedule: Q01DX005 (ip), vehicle: saline with Tween-80.
The mark [6] stands for this setting: dose: 100.0 mg/kg/injection, schedule: Q01DX005 (ip), vehicle: saline with Tween-80.
[7] abbreviates: dose: 200.0 mg/kg/injection, schedule: Q01DX005 (ip), vehicle: saline with Tween-80.
Where [8] appears, read: dose: 50.0 mg/kg/injection, schedule: Q01DX009 (ip), vehicle: saline with Tween-80.
The mark [9] stands for this setting: dose: 240.0 mg/kg/injection, schedule: Q01DX005 (ip), vehicle: saline with Tween-80.

As to `Cc1c(N)nc(C(CC(N)=O)NCC(N)C(N)=O)nc1C(=O)NC(C(=O)NC(C)C(O)C(C)C(=O)NC(C(=O)NCCc1nc(-c2nc(C(=O)NCCC[S+](C)C)cs2)cs1)C(C)O)C(OC1OC(CO)C(O)C(O)C1OC1OC(CO)C(O)C(OC(N)=O)C1O)c1cnc[nH]1` (stereo not drawn), the T/C was 101, 108, 110, 111 % of control (dose: 1.0 mg/kg/injection, schedule: Q01DX009 (ip), vehicle: saline); 100, 108, 110, 118, 119 % of control (dose: 2.0 mg/kg/injection, schedule: Q01DX009 (ip), vehicle: saline); 109, 110, 116, 121, 126 % of control (dose: 4.0 mg/kg/injection, schedule: Q01DX009 (ip), vehicle: saline); 108, 115, 118, 119, 142 % of control (dose: 8.0 mg/kg/injection, schedule: Q01DX009 (ip), vehicle: saline); 100, 109, 112, 115, 148 % of control (dose: 16.0 mg/kg/injection, schedule: Q01DX009 (ip), vehicle: saline).

Regarding `CN(C)CCC1C2CC3CC(C2)CC1C3` (stereo not drawn), the survivor count under setting [1] is reported as 0 of 6.

For the molecule `CN(C)c1ccc(C(N)=O)cn1`, the T/C (dose: 3.13 mg/kg/injection, schedule: Q01DX009 (ip), vehicle: saline with Tween-80) was 131 % of control. The survivor count is, setting by setting: (dose: 100.0 mg/kg/injection, schedule: Q04DX003 (ip), vehicle: saline with Tween-80) 5 of 6; (dose: 200.0 mg/kg/injection, schedule: Q04DX003 (ip), vehicle: saline with Tween-80) 4 of 6; (dose: 400.0 mg/kg/injection, schedule: Q04DX003 (ip), vehicle: saline with Tween-80) 3 of 6.

As to `CC12CCC3c4ccc(O)cc4CCC3C1CCC2(O)CN1CCCCC1` (stereo not drawn), under setting [2], the survivor count is listed as 0 of 6.

Consider `CCCCCNC(=O)OCc1c(COC(=O)NCCCCC)c(-c2ccc(Cl)c(Cl)c2)n2c1CCC2`, for which the T/C reads like this: (dose: 50.0 mg/kg/injection, schedule: Q01DX009 (ip), vehicle: distilled water + Tween-80, evaluated on day 30) 138 % of control; (dose: 50.0 mg/kg/injection, schedule: Q01DX009 (ip), vehicle: distilled water + Tween-80, evaluated on day 45) 137 % of control; (dose: 100.0 mg/kg/injection, schedule: Q01DX009 (ip), vehicle: distilled water + Tween-80) 137 % of control; under setting [3], 135 % of control [4 of 6 alive]. The survivor count under setting [3] is on record as 4 of 6.

For the molecule `O=C(Nc1ccc(NC2=NCCN2)cc1)c1cc(Cl)cc(C(=O)Nc2ccc(NC3=NCCN3)cc2)c1`, under setting [4], the T/C was 125 and 128 % of control. In addition, the survivor count reads like this: (dose: 100.0 mg/kg/injection, schedule: Q01DX005 (ip), vehicle: Klucel (hydroxypropylcellulose) (HPC)) 0 of 6; under setting [2], 0 of 6.

Take `COc1ccc(C(=O)O[C@H]2CC[C@@]3(C)[C@@H]4CC[C@H]5[C@]6(O)C[C@H](O)[C@@]7(O)[C@@H](CN8C[C@@H](C)CC[C@H]8[C@@]7(C)O)[C@]6(O)C[C@@]53OC24O)cc1OC`: the survivor count was 0 of 5 under setting [5], 0 of 5 under setting [6] and 0 of 5 under setting [7].

Consider `CC(C#N)(Nc1ccccc1)c1ccco1` (stereo not drawn), for which the survivor count is 6 of 6 (dose: 25.0 mg/kg/injection, schedule: Q04DX003 (ip), vehicle: other); 6 of 6 (dose: 50.0 mg/kg/injection, schedule: Q04DX003 (ip), vehicle: other); 4 of 6 and 5 of 6 (dose: 100.0 mg/kg/injection, schedule: Q04DX003 (ip), vehicle: other); 1 of 6 (dose: 200.0 mg/kg/injection, schedule: Q04DX003 (ip), vehicle: other).

`CCOC(=O)c1ccc(NC(=O)O/N=C/c2ccncc2)cc1`: under setting [8], the survivor count is on record as 6 of 6.

Consider `O=C1CCCC2=C1[Se]C1(O2)C(=O)CCCC1=O`, for which the survivor count is 0 of 6 (dose: 100.0 mg/kg/injection, schedule: Q01DX009 (ip), vehicle: saline) and 0 of 6 under setting [1].

On to `C=CCNC(=S)n1cnc(N)n1`, for which the survivor count under setting [9] is listed as 1 of 6.

`O=[N+]([O-])c1ccc(C(c2ccccc2)c2ccccc2)cc1`: the survivor count is given as 6 of 6 under setting [8] and 4 of 6 (dose: 100.0 mg/kg/injection, schedule: Q01DX009 (ip), vehicle: saline with Tween-80).

For the molecule `CO/N=C1\CC(C)N2C(=O)C(C(C)C)NC(=O)C(NC(=O)c3c4nc5c(C(=O)NC6C(=O)NC(C(C)C)C(=O)N7C(C)CC(O)C7C(=O)N(C)CC(=O)N(C)C(C(C)C)C(=O)OC6C)ccc(C)c5oc-4c(C)c(=O)c3N)C(CO)OC(=O)C(C)N(C)C(=O)CN(C)C(=O)C12` (stereo not drawn), the T/C by setting is: (dose: 1.5 mg/kg/injection, schedule: Q01DX005 (ip), vehicle: saline with Tween-80) 136 % of control; (dose: 3.13 mg/kg/injection, schedule: Q01DX005 (ip), vehicle: saline with Tween-80) 136 % of control; (dose: 6.25 mg/kg/injection, schedule: Q01DX005 (ip), vehicle: saline with Tween-80) 148 % of control. Under setting [5], the survivor count was 1 of 6.

With `CC(C)CC1N=C(NN=C(CCl)CCl)OP1(=O)NCCCCCCNP1(=O)OC(NN=C(CCl)CCl)=NC1CC(C)C` (stereo not drawn), the survivor count (dose: 120.0 mg/kg/injection, schedule: Q01DX005 (ip), vehicle: Klucel (hydroxypropylcellulose) (HPC)) is on record as 3 of 6 and the survivor count (dose: 240.0 mg/kg/injection, schedule: Q01DX005 (ip), vehicle: Klucel (hydroxypropylcellulose) (HPC)) is on record as 0 of 6.

On to `COC(=O)C[N+](C)(C)Cc1ccccc1`, for which the survivor count (dose: 200.0 mg/kg/injection, schedule: Q01DX009 (ip), vehicle: DMSO) is on record as 0 of 6.

On to `C[N+](C)(C[Si](C)(C)C)C1CCCCCCCCCCC1`, for which the survivor count was 0 of 6 (dose: 30.0 mg/kg/injection, schedule: Q01DX005 (ip), vehicle: saline with Tween-80); 0 of 6 (dose: 60.0 mg/kg/injection, schedule: Q01DX005 (ip), vehicle: saline with Tween-80); 0 of 6 (dose: 120.0 mg/kg/injection, schedule: Q01DX005 (ip), vehicle: saline with Tween-80); 0 of 6 under setting [9].

For `COc1cccc(NCCCSC)c1`, the survivor count (dose: 200.0 mg/kg/injection, schedule: Q01DX005 (ip), vehicle: saline) is 3 of 6.

For `O=C1c2ccccc2C(C2c3ccccc3C(=O)c3cc(Br)ccc32)c2ccc(Br)cc21` (stereo not drawn), the survivor count under setting [4] is recorded as 6 of 6 and the survivor count under setting [2] is given as 5 of 6.

In the case of `CSc1ccc(N2C(N)=NC(N)=NC2(C)C)cc1`, the survivor count under setting [5] was 3 of 5, the survivor count under setting [6] is recorded as 0 of 5 and the survivor count under setting [7] was 0 of 5.

Regarding `COc1ccc(CC(N)c2nn[nH]n2)cc1` (stereo not drawn), where the note is “dose: 200.0 mg/kg/injection, schedule: Q01DX009 (ip), vehicle: saline with Tween-80”, the survivor count is 0 of 6.

As for `COC(=O)C1(F)C(=O)NC(=O)NC1OC` (stereo not drawn), the T/C (dose: 120.0 mg/kg/injection, schedule: Q04DX002 (ip), vehicle: Klucel (hydroxypropylcellulose) (HPC)) was 128 and 137 % of control; the T/C (dose: 240.0 mg/kg/injection, schedule: Q04DX002 (ip), vehicle: Klucel (hydroxypropylcellulose) (HPC)) was 137 % of control.

Regarding `Cc1cc(C)nc(NN=O)c1`, the T/C (dose: 6.25 mg/kg/injection, schedule: Q01DX009 (ip), vehicle: water) was 128 % of control; the T/C (dose: 12.5 mg/kg/injection, schedule: Q01DX009 (ip), vehicle: water) is 145 % of control; the T/C (dose: 25.0 mg/kg/injection, schedule: Q01DX009 (ip), vehicle: water) was 132 and 133 % of control. Moreover, the survivor count (dose: 50.0 mg/kg/injection, schedule: Q01DX009 (ip), vehicle: water) was 6 of 6.

For `CC1=C2CC(C)(C)/C=C\C(=O)/C(C)=C\C3=CCCC3(O2)C1=O` (stereo not drawn), the survivor count (dose: 40.0 mg/kg/injection, schedule: Q01DX005 (ip), vehicle: Klucel (hydroxypropylcellulose) (HPC)) is given as 0 of 5 and the survivor count (dose: 80.0 mg/kg/injection, schedule: Q01DX005 (ip), vehicle: Klucel (hydroxypropylcellulose) (HPC)) was 0 of 5.
